Results: US7985773B2 (American Sterilizer Company, priority 2004, dated 2011)
Values joined by “and” are separate entries in the source; they are usually repeats but may differ in a detail not shown here. Equal entries are not always repeated. At least one read-out could not be matched to a standard name with certainty.

Tested on: Serratia marcescens ATCC 14756
Experiment: Residual activity testing procedure on pigskin
Type: cell-based
Conditions: for Average Log Reduction: average of two series; for Log Reduction: single series
Procedure: The gram negative organism was grown for approximately 24 hours at 30° C. and then suspended in Butterfields Buffer to a count of 1×10^8. The pigskins were prepared according to the following standard of procedure. Pigskin hides are collected on the date of slaughter and processed on the same day by removing adipose tissue and thoroughly cleaning the hide. Both of these processes are accomplished by spraying both sides of the pig hide with a high pressure washer. No soap or detergents are used at any time during the processing of pig hides for laboratory use. After cleaning and de-fatting, pigskins are placed in water and frozen at the farm from which they were harvested. When required for laboratory testing, a representative procures the hides and thaws them for laboratory manipulation. In the laboratory, these hides are cut into manageable pieces with a scalpel and coarse hair removed with animal grooming clippers. Disposable razors are further employed to create a smooth surface without negatively affecting the skin surface. These pieces are then sterilized by Gamma irradiation and kept frozen until use in a study. Testing circles were then punched out of the pigskins and glued to a phenolic cap. The testing samples were placed in a 30° C. oven to equilibrate for at least 20 minutes. Each skin was treated with 150 μl of test product and rubbed for 30 seconds as a pair, skin to skin. The skins were allowed to dry for 30 seconds and then the test product was reapplied four times in the same manner. The skins were allowed to dry in a slightly opened hood for 15 minutes. After drying the skins were inoculated with 31 μl of the Serratia marcescens inoculum, as prepared above, rubbed for 15 seconds, and sampled after three minutes. To sample, a sterile 3.5 cm diameter cylinder is placed, lip side down, over the pigskin on the cap. Enough pressure is applied to the cylinder to prevent any leakage upon the addition of an appropriate volume of liquid sampling solution to the cylinder. The skin is then debrided, using a sterile policeman, for 30 seconds by rubbing the surface of the skin with the flat edge of the policeman with enough pressure to remove any microorganisms that might be on the surface. Two mL of the sampling solution are removed using a sterile pipet and are utilized for preparing serial dilutions and aerobic plate counts to establish the number of Colony Forming Units remaining.

[1] = additive at 0.5 parts by weight per 100 parts total composition in the Table I base, FIG. 2
[2] = additive at 0.5 parts by weight per 100 parts total composition in the Table I base

Row | SMILES | Average Log Reduction [1] | Log Reduction [2] | Average Log Reduction (additive at the active % listed in Table III in the Table I base, pigskin residual activity)
1 | CCCCCCCCCC(=O)OCC(O)CO (centres unmarked) [Glyceryl caprate] | 0.92 | 0.93 and 0.91 | –
2 | COC(=O)c1ccc(O)cc1 [Methyl paraben] | – | – | −0.11 and 0.17
3 | CC(O)C(=O)O.CCCCCCCCCCCCCCCCCC(=O)NCCCN(C)C [Stearamidopropyl dimethylamine lactate] | −0.04 | −0.12 and 0.05 | –
